From the supplement of paper PMC12578635 come the findings set out here.

± gives the standard deviation of the averaged measurements. This is one part of the list. Single values are uncertain, as repeats are few or missing.

The subject of the assay is RAW 264.7 macrophages infected with S. aureus JE2-lux. In words: host macrophage viability (CellTiter-Fluor) relative to DMSO vehicle; higher = more viable host cells. To be noted: 10 µM; treatment time 4 h; gentamicin 50 µg/ml.
As for `Cc1nc(C#N)c(N/N=C/C=C/c2ccccc2)o1`, the host macrophage viability is 104%.

As for `CCn1c(N2CCN(CC(=O)Nc3c(C)cccc3C)CC2)nc2ccccc21`, the host macrophage viability worked out at 118%.

As to `O=C(CSc1ncnc2c1cnn2-c1ccc(Cl)cc1)Nc1ccc2c(c1)OCCO2`, the host macrophage viability was determined as 114%.

Turning to `Cc1ccc2c(cnn2C(=O)NCCc2ccccc2)c1`, the host macrophage viability came out at 98.7%.

For the molecule `Cc1ccc(Cn2c(CCCC(=O)NCCN(C)C)nc3cccnc32)cc1`, the host macrophage viability came out at 118%.

Regarding `CCOc1ccccc1NC(=O)c1nn(C)c(C(F)(F)F)c1Cl`, the host macrophage viability came to 108%.

As to `Cc1ccc(C)c(N2CCN(c3c4c(nc5nc(C)nn35)CCCC4)CC2)c1`, the host macrophage viability is 119%.

Take `c1ccn(-c2ncnc3sc4c(c23)CCCC4)c1`: the host macrophage viability came to 122%.

Take `O=C(CN1C(=O)c2cccc3cccc(c23)C1=O)Nc1nc2ccccc2s1`: the host macrophage viability worked out at 114%.

Turning to `Cc1c(Cl)ccc2sc(N3CCN(C(=O)/C=C/c4cccc([N+](=O)[O-])c4)CC3)nc12`, the host macrophage viability amounted to 104%.

Take `COc1ccc(OC)c(S(=O)(=O)NC(=N)NCCc2ccccc2OC)c1`: the host macrophage viability was 112%.

For `O=C1c2ccccc2C(=O)N1CNc1ccccc1Cl`, the host macrophage viability was 118 ± 12%.

`COC(=O)c1ccccc1NC(=O)CSc1nc(N)cc(=O)[nH]1`: the host macrophage viability worked out at 98.9%.

Consider `Cc1cc(-c2csc(S(=O)(=O)N3CCC(Cc4ccccc4)CC3)c2)on1`, for which the host macrophage viability was found to be 97.3%.

As for `Cc1nc2cccc(NC(=O)COc3ncnc4ccccc34)c2[nH]1`, the host macrophage viability is 124%.

Regarding `CN(Cc1ccccc1)C(=O)CCn1cnc2c(-c3ccc(F)cc3)noc2c1=O`, the host macrophage viability turned out to be 90.8%.

With `S=C(Nc1ccccc1)N1CCC(n2cnc3ccccc32)CC1`, the host macrophage viability came out at 121%.

`CCn1c(=O)c(N2CCN(C(=O)COc3ccc(F)cc3)CC2)c(C)n(-c2ccccc2)c1=O`: the host macrophage viability was determined as 115%.

`N#Cc1c(NC(=O)CCSCCC(=O)Nc2sc3c(c2C#N)CCC3)sc2c1CCC2`: the host macrophage viability came out at 131%.

Consider `O=C(NCc1cccc(F)c1)c1cnn2c(=O)c3c([nH]c12)CCCC3`, for which the host macrophage viability came to 110%.

With `O=C(NCc1ccc(F)cc1)C(=O)c1c[nH]c2ccccc12`, the host macrophage viability is 121 ± 13%.

In the case of `CC(=O)N1CCCN(C(=O)c2ncoc2-c2ccc(F)cc2)CC1`, the host macrophage viability was 93.1%.

For `Cc1nc(N2CCC(C(=O)NCCc3ccc(Cl)cc3)CC2)c2c(C)c(C)oc2n1`, the host macrophage viability amounted to 132%.

Regarding `Cc1cccc(C2CCCN2C(=O)c2cnn3cc(Br)cnc23)c1` (stereo unspecified), the host macrophage viability was 119%.

Turning to `COC(=O)c1ccc(C(=O)Nc2ccc(N3CCC(C)CC3)c(C(N)=O)c2)s1`, the host macrophage viability amounted to 82.4%.

On to `S=C(NCc1ccccc1)N1CCCC(c2nc3ccccc3[nH]2)C1` (stereo unspecified), for which the host macrophage viability turned out to be 118%.

For the molecule `O=C(c1c(-c2ccccc2)nnc2ccccc12)N1CC=C(c2ccccc2)CC1`, the host macrophage viability is 116%.

In the case of `O=C(CSc1nc2ccccc2o1)N1CCc2ccccc21`, the host macrophage viability is 108%.

In the case of `CCOC(=O)c1ccccc1NC(=O)COc1cc(=O)n(-c2ccccc2Cl)nc1C(=O)OCC`, the host macrophage viability was 122%.

`Cc1nc(OCC(=O)NCc2cccnc2)c2c(C)c(C)oc2n1`: the host macrophage viability was found to be 120%.

Consider `CCN(CC)c1nc(N2CCOCC2)c2cnn(C)c2n1`, for which the host macrophage viability came to 122%.

`O=S(=O)(c1ccc(-c2noc(-c3cc4cc(Cl)ccc4[nH]3)n2)cc1)N1CCCC1`: the host macrophage viability worked out at 143%.

In the case of `O=C(NCCc1ccc(Cl)cc1)C(=O)Nc1ccc(F)c(F)c1`, the host macrophage viability amounted to 113%.

Turning to `COC(=O)Cn1/c(=N/C(=O)CSCC(=O)Nc2cc(C)on2)sc2cc(OC)ccc21`, the host macrophage viability is 117%.

Turning to `Cn1ncc2c1CCc1sc(NC(=O)COCC3CCCCO3)nc1-2` (stereo unspecified), the host macrophage viability turned out to be 117%.

As for `Cc1cccc2cc(CN(Cc3ccc4c(c3)OCO4)C(=O)NCc3ccccc3)c3nnnn3c12`, the host macrophage viability turned out to be 120%.

On to `COc1ccc(-c2cnnn2-c2ccc(NC(=O)c3cc4ccccc4oc3=O)cc2)cc1OC`, for which the host macrophage viability amounted to 127%.

For `COC(=O)c1ccc(CSc2ncnc3c2nnn3-c2ccc(OC)cc2)o1`, the host macrophage viability was determined as 115 ± 9.3%.

`O=C(CN1C(=O)CCC1=O)Nc1ncc(S(=O)(=O)c2ccc([N+](=O)[O-])cc2)s1`: the host macrophage viability stood at 121%.

With `Cn1c(=O)n(CC(=O)N2CCCC(c3ccccc3)C2)c2cccnc21` (stereo unspecified), the host macrophage viability is 105%.

Turning to `O=C(CCCN1C(=O)c2cccc3cccc(c23)C1=O)Nc1ccon1`, the host macrophage viability amounted to 114%.

For `Cc1cc(C)c2cc(CN(C(=O)c3cnccn3)C3CCCC3)c(Cl)nc2c1`, the host macrophage viability came out at 99.9%.

As to `O=C(CSc1ncc(CO)n1Cc1ccccc1)Nc1nccs1`, the host macrophage viability was determined as 126%.

Take `O=C1c2cccc3cccc(c23)C(=O)N1CCc1ccc(S(=O)(=O)N2CCCCC2)cc1`: the host macrophage viability turned out to be 125%.

For the molecule `CCn1c2ccccc2n2c(=O)n(CC(=O)NC(C)(C)C)nc12`, the host macrophage viability turned out to be 108%.

On to `COc1ccc(CNc2nc3c(S(=O)(=O)c4ccc(F)cc4)nnn3c3ccccc23)cc1`, for which the host macrophage viability came to 123%.

Take `O=C(C1=C(O)C(=O)N(CCCn2ccnc2)C1c1ccccn1)c1ccccc1` (stereo unspecified): the host macrophage viability stood at 101%.

As for `Nc1nc(SCCCC(=O)NC2CCCCC2)nc2sc3c(c12)CCCC3`, the host macrophage viability was 117%.

On to `Oc1ccc(Nc2nc(-c3ccccc3)c3cc(Cl)ccc3n2)cc1`, for which the host macrophage viability worked out at 124%.

In the case of `Cc1cc(C)nc(SCC(=O)Nc2ncc(Cc3cccc4ccccc34)s2)n1`, the host macrophage viability was determined as 116%.

`CCOC(=O)c1ccccc1NC(=O)CSc1nc(=O)n(CCN(CC)CC)c2c1CCCC2`: the host macrophage viability is 117%.

For `COc1cccc(C(=O)N2CC(=O)Nc3ccc(Cl)cc3C2c2ccc(F)cc2)c1OC` (stereo unspecified), the host macrophage viability turned out to be 110%.

As to `Cc1cn2c3c(=O)n(C/C=C/c4ccccc4)c(=O)n(C)c3nc2n1-c1ccccc1F`, the host macrophage viability amounted to 116%.

`Cc1ccc(Cc2nnc(-c3cccc(NS(=O)(=O)c4ccc(N5CCCC5=O)cc4)c3)o2)cc1`: the host macrophage viability stood at 86.7%.

`COc1ccc(CNC(=O)Cn2nnc(-c3ccc(Cl)cc3)n2)cc1`: the host macrophage viability stood at 118%.

On to `Cc1ccc2cc(CCNC(=O)C3CC3)c(=O)[nH]c2c1C`, for which the host macrophage viability was found to be 123%.

Turning to `O=c1[nH]c2ccccc2n1CCCSc1cccc2cccnc12`, the host macrophage viability turned out to be 118%.

On to `Cc1ccccc1NC(=O)NC1CC2CCC(C1)N2Cc1ccccc1` (stereo unspecified), for which the host macrophage viability stood at 123%.

On to `Brc1ccc2[nH]c3nc(SCc4nc5ccccc5[nH]4)nnc3c2c1`, for which the host macrophage viability is 104%.

In the case of `Cc1ccc(C2C(C#N)=C(SCC(=O)N3c4ccccc4CC3C)NC3=C2C(=O)CCC3)o1` (stereo unspecified), the host macrophage viability worked out at 108%.

`COC(=O)c1ccc2c(c1)C1CC(C)(O2)N(c2ccc(OC)c(OC)c2)C(=O)N1` (stereo unspecified): the host macrophage viability amounted to 102%.

As to `COc1ccc(OC)c(NS(=O)(=O)c2ccc3[nH]c(=O)[nH]c3c2)c1`, the host macrophage viability worked out at 117%.

With `CCN1CCN(c2nc(N3CCN(C(=O)c4ccco4)CC3)nc3c2cnn3C)CC1`, the host macrophage viability turned out to be 111%.

For `Cc1ccc(C(=O)Nc2ccccc2-c2nc3ccccc3[nH]c2=O)cc1[N+](=O)[O-]`, the host macrophage viability amounted to 131%.

Turning to `COc1ccc(OC)c2[nH]c(=O)c(CCNC(=O)c3ccc(Cl)c([N+](=O)[O-])c3)cc12`, the host macrophage viability was 123%.

Take `COc1ccc2ncc(C(=O)NC3CCCC3)c(O)c2c1`: the host macrophage viability stood at 121%.
